Where a name gives a salt, the structure may show the parent alone. ± gives the standard deviation of the averaged measurements. What follows is the remainder of the data, with few or none of the lowest values.

This experiment concerns E. coli TESEC Alr+ wild-type control. Description: growth (OD600 after 10 h); higher = more growth (less inhibition). The note with it: compound 0.1 mM; raw OD600 reference: median of DMSO wells 0.241, cell-free background 0.041. How it is done: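 TESEC Mtb Alr E. coli, or the Alr+ wild-type control, in 384-well plates with Prestwick library compounds at 0.1 mM and 1% DMSO, across arabinose induction levels of 1E3 to 1E7 nM. Growth is read as OD600 after 10 h at 37 °C in triplicate biological replicates.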
Molecule `CN1[C@@H]2CC[C@H]1C[C@@H](OC(=O)C(O)c1ccccc1)C2` (mixture of isomers) [Homatropine hydrobromide (R,S)] registered a growth of 0.257 ± 0.0061.

For the origin of these results see the supplement of paper PMC9262897, “Low-cost anti-mycobacterial drug discovery using engineered E. coli” (Nature Communications, 2022).
